# Cleaved PARP after 72 h of treatment

Source: doi:10.1371/journal.pone.0140310, primary screening data, rounded.

All values are for the listed drug together with RKI-983 (2000 nM): C[C@@H](N)c1ccc(C(=O)Nc2ccnc3[nH]ccc23)cc1

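Human melanoma cells were exposed to a pair of drugs for 72 h in 1,536-well plates and read by automated microscopy after fixing and staining. Each value is the cleaved-PARP-positive fraction of nuclei relative to DMSO-treated wells, in %, so that 100 equals the control and higher values mean more apoptosis. Concentrations were fixed for each drug; these are the higher of two levels. The file gives one value for each pair and line, without errors, so small differences may be noise. Basal and induced levels differ widely between cell lines.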 This is part of the screen, not chosen by result. An entry leaves out what has no value listed here. A dash means that no value is listed here.

With CN1CCN(c2ccc3nc(-c4c(N)c5c(F)cccc5[nH]c4=O)[nH]c3c2)CC1 at 500 nM the screen read MEL-HO: 166. For Nc1ccn([C@@H]2O[C@H](CO)[C@@H](O)C2(F)F)c(=O)n1 at 2 nM the values were MEL-HO: 164. Results for Nc1nc(F)nc2c1ncn2[C@@H]1O[C@H](CO)[C@@H](O)[C@@H]1O at 1000 nM are MEL-HO: 52.0.

Results for O=C(CCCCCCC(=O)Nc1ccccc1)NO at 400 nM are MEL-HO: 79.4. O=C(O)c1ccc2c(c1)nc(Nc1cccc(Cl)c1)c1ccncc12 at 2000 nM gave MEL-HO: 280. CCCCCCCCCCCCCCCCCCOP(=O)([O-])OC1CC[N+](C)(C)CC1 at 2000 nM gave MEL-HO: 145.

For O=C(O)c1ccc(-c2c[nH]c3ncc(-c4ccccc4)cc23)cc1C1CCCC1 at 800 nM the values were MEL-HO: 49.1. Results for COc1cc2ncnc(Nc3ccc(Oc4ccccc4)cc3)c2cc1OC at 10000 nM are MEL-HO: 137; 501mel: 302. For COC(=O)c1sccc1S(=O)(=O)Nc1ccc(Nc2ccccc2)cc1OC at 5000 nM the values were MEL-HO: 146; 501mel: 78.0.

CC(C)(C)c1cnc(CSc2cnc(NC(=O)C3CCNCC3)s2)o1 at 50 nM gave MEL-HO: 88.0. For c1cc(-c2cnn3cc(-c4ccc(OCCN5CCCCC5)cc4)cnc23)ccn1 at 2000 nM the values were MEL-HO: 87.1; 501mel: 49.5. Results for C[C@@H]1CCN(C(=O)CC#N)C[C@@H]1N(C)c1ncnc2[nH]ccc12 at 5000 nM are MEL-HO: 85.5.

OCCn1cc(-c2cnc3nnn(Cc4ccc5ncccc5c4)c3n2)cn1 at 5000 nM gave MEL-HO: 233. CN(NC(=O)CC(=O)NN(C)C(=S)c1ccccc1)C(=S)c1ccccc1 at 30 nM gave MEL-HO: 209. O=S(=O)(c1ccccc1)N(CC(F)(F)F)c1ccc(C(O)(C(F)(F)F)C(F)(F)F)cc1 at 7000 nM gave MEL-HO: 262; 501mel: 293.

Results for C[C@]1(c2nc3c(C(N)=O)cccc3[nH]2)CCCN1 at 7000 nM are MEL-HO: 202. Results for CC1(C)CCC(c2ccc(Cl)cc2)=C(CN2CCN(c3ccc(C(=O)NS(=O)(=O)c4ccc(N[C@H](CCN5CCOCC5)CSc5ccccc5)c(S(=O)(=O)C(F)(F)F)c4)cc3)CC2)C1 at 2000 nM are MEL-HO: 122. Results for Cc1cc(SCc2sc(-c3ccc(C(F)(F)F)c(F)c3)nc2C)ccc1OCC(=O)O at 10000 nM are MEL-HO: 408; 501mel: 144.

Results for C#Cc1cccc(Nc2ncnc3cc(OCCOC)c(OCCOC)cc23)c1 at 4000 nM are MEL-HO: 268. For C[As](C)SC[C@H](NC(=O)CC[C@H](N)C(=O)O)C(=O)NCC(=O)O at 2000 nM the values were MEL-HO: 109. For Cc1cc(N2CCOCC2)cc2[nH]c(-c3c(NC[C@@H](O)c4cccc(Cl)c4)cc[nH]c3=O)nc12 at 1000 nM the values were MEL-HO: 88.9.

CN(C)S(=O)(=O)c1ccc2c(c1)/C(=C/c1cc3c([nH]1)CCCC3)C(=O)N2 at 2000 nM gave MEL-HO: 94.5.

The first 3 entries again:

Second drug	MEL-HO	501mel
CN1CCN(c2ccc3nc(-c4c(N)c5c(F)cccc5[nH]c4=O)[nH]c3c2)CC1 at 500 nM	166	-
Nc1ccn([C@@H]2O[C@H](CO)[C@@H](O)C2(F)F)c(=O)n1 at 2 nM	164	-
Nc1nc(F)nc2c1ncn2[C@@H]1O[C@H](CO)[C@@H](O)[C@@H]1O at 1000 nM	52.0	-